No constants are given. Whether binding was seen depends on the method and setting. In cells and extracts the contact can be indirect. Some binding calls cover weakened binding; strength is not graded here.
Biological target: von Hippel–Lindau (VHL) protein (pVHL), mouse heart (mouse (endogenous in mouse heart)), P40338
Experiment: co-IP; mouse heart homogenates (WT, TgPLN^R9C, NHE1-Tg mice, 16 weeks) precipitated with anti-pVHL antibody on SureBeads Protein G Magnetic Beads; Western blot with anti-PLN antibody
Details: remark: other sources report otherwise

binding: binds
B1: phospholamban (PLN), mouse heart, P61014 1-52 (protein)
chain: MEKVQYLTRSAIRRASTIEMPQQARQNLQNLFINFCLILICLLLICIIVMLL

— PMC5713202
